# In patent publication US20250135043A1, “DUAL-TARGETING COMPOUND FOR FIBROBLAST ACTIVATION PROTEIN (FAP) AND INTEGRIN avB3, PREPARATION METHOD THEREFOR AND USE THEREOF” (YANTAI LANNACHENG BIOTECHNOLOGY CO., LTD., priority 2022, published 2025):
# Part of at least one peptide drawing is inferred or uncertain, most often the ends.
# Legend:
# HT1080-FAP tumor cells = assay: Cellular uptake and blocking experiment; assay type: cell-based
# [1] = system: HT1080-FAP tumor-bearing mice; assay type: in vivo
# Experimental: Then, under anaesthesia with isoflurane, the ^68Ga-FAPI-RGD (V-25) group was subjected to MicroPET imaging after administration for 0-240 min, respectively, and the other groups were subjected to MicroPET imaging after administration for 0-120 min, respectively. In FIG. 53, Part A, Part C and Part E show maximum-density MicroPET projection images of the HT1080-FAP tumor-bearing mice (n=3) at different time points after the intravenous injection of the three groups of mice, respectively, and Part B, Part D and Part F show uptake in various organs or tissues (such as blood, liver, kidney, tumors and muscles) of the three groups of mice at different time points after the injection, respectively, where three uptake amounts in each group correspond to, from left to right, 0.5 h, 1 h and 2 h after the injection, respectively. […] A specific binding property of the ^68Ga-FAPI-RGD (V-25) to integrin αvβ3 and FAP in vivo is proven by a blocking experiment. The ^68Ga-FAPI-RGD (V-25) and C(RGDfK) or FAPI-02 were co-injected into HT1080-FAP tumor-bearing mice, and MicroPET imaging results and organ uptake results are shown in FIG. 54. In FIG. 54, four images in Part A correspond to, from left to right, images obtained by separate injection of the ^68Ga-FAPI-RGD (V-25), co-injection of the ^68Ga-FAPI-RGD (V-25) with the C(RGDfK), co-injection of the ^68Ga-FAPI-RGD (V-25) with the FAPI-02, and co-injection of the ^68Ga-FAPI-RGD (V-25) with the C(RGDfK) and the FAPI-02, respectively; and Part B and Part C show uptake of the ^68Ga-FAPI-RGD (V-25) in various organs or tissues (such as blood, liver, kidney, tumors and muscles) of the mice after injection by the four different injection methods and a target/non-target ratio, respectively, where four histograms for each organ or tissue in Part B and Part C correspond to, from left to right, the four injection methods in Part A, respectively. […] A blocking experiment proves that the ^68Ga-FAPI-RGD (V-25) can achieve specific targeting of tumors by binding to integrin and FAP in vivo.
# [2] = Stability analysis in normal saline or PBS (radiochemical purity by HPLC); assay type: physicochemical; settings: 37° C., 0.5 h, 1 h and 4 h
compound,measurement,setting,value
"N#C[C@@H]1CCCN1C(=O)CNC(=O)c1ccnc2ccc(OCCCN3CCN(C(=O)CCOCCOCCNC(=O)[C@H](CCC(=O)NCCOCCOCCC(=O)NCCCC[C@@H]4NC(=O)[C@@H](Cc5ccccc5)NC(=O)[C@H](CC(=O)O)NC(=O)CNC(=O)[C@H](CCCNC(=N)N)NC4=O)NC(=O)CN4CCN(CC(=O)O)CCN(CC(=O)O)CC4)CC3)cc12 [^68Ga-FAPI-RGD (V-25), metal not drawn]",cellular uptake,HT1080-FAP tumor cells,rapid cellular uptake
same,cellular uptake in presence of C(RGDfK) or FAPI-02 (blocking),HT1080-FAP tumor cells,partially inhibited
same,cellular uptake in presence of FAPI-RGD (blocking),HT1080-FAP tumor cells,completely blocked
same,incubation time of maximum cellular uptake,HT1080-FAP tumor cells,30 min
same,time for which a similar uptake level is maintained,HT1080-FAP tumor cells,2 h
same,tumor visibility in MicroPET images,"[1]; 7.4 MBq tail i.v., image acquisition time points",tumors are clearly visible
same,uptake in tumors after co-injection with RGD and FAPI-02 (blocking),[1]; 30 min,further reduced
same,uptake in tumors after co-injection with RGD or FAPI-02 (blocking),[1]; 30 min,reduced
same,decomposition after incubation in normal saline,[2],not obviously decomposed
same,radiochemical purity after incubation,[2]; normal saline,greater than 99%
